The assay addresses PERK^T982A (UniProt Q9NZJ5). Briefly: non-reducing SDS-PAGE; A375 cells treated with DdBIC (20 uM, 5 h), lysed in 2x SDS loading buffer, no beta-mercaptoethanol, 4-12% gradient gel, western blot; total lysates and cytosolic fractions; also with OPA1 knock-down, Mito-Q, alpha-VE or hemin. A general note: Immunoblotting shows a protein as a band on a membrane.

These are yes or no findings as the source states them, for the method shown. Some results given as binding are weak or reduced against the parent protein; the word gives no strength.

B1: PERK^T982A (protein, UniProt Q9NZJ5 30-1116)
chain: AGRARGLPAPTAEAAFGLGAAAAPTSATRVPAAGAVAAAEVTVEDAEALPAAAGEQEPRGPEPDDETELRPRGRSLVIISTLDGRIAALDPENHGKKQWDLDVGSGSLVSSSLSKPEVFGNKMIIPSLDGALFQWDQDRESMETVPFTVESLLESSYKFGDDVVLVGGKSLTTYGLSAYSGKVRYICSALGCRQWDSDEMEQEEDILLLQRTQKTVRAVGPRSGNEKWNFSVGHFELRYIPDMETRAGFIESTFKPNENTEESKIISDVEEQEAAIMDIVIKVSVADWKVMAFSKKGGHLEWEYQFCTPIASAWLLKDGKVIPISLFDDTSYTSNDDVLEDEEDIVEAARGATENSVYLGMYRGQLYLQSSVRISEKFPSSPKALESVTNENAIIPLPTIKWKPLIHSPSRTPVLVGSDEFDKCLSNDKFSHEEYSNGALSILQYPYDNGYYLPYYKRERNKRSTQITVRFLDNPHYNKNIRKKDPVLLLHWWKEIVATILFCIIATTFIVRRLFHPHPHRQRKESETQCQTENKYDSVSGEANDSSWNDIKNSGYISRYLTDFEPIQCLGRGGFGVVFEAKNKVDDCNYAIKRIRLPNRELAREKVMREVKALAKLEHPGIVRYFNAWLEAPPEKWQEKMDEIWLKDESTDWPLSSPSPMDAPSVKIRRMDPFATKEHIEIIAPSPQRSRSFSVGISCDQTSSSESQFSPLEFSGMDHEDISESVDAAYNLQDSCLTDCDVEDGTMDGNDEGHSFELCPSEASPYVRSRERTSSSIVFEDSGCDNASSKEEPKTNRLHIGNHCANKLTAFKPTSSKSSSEATLSISPPRPTTLSLDLTKNTTEKLQPSSPKVYLYIQMQLCRKENLKDWMNGRCTIEERERSVCLHIFLQIAEAVEFLHSKGLMHRDLKPSNIFFTMDDVVKVGDFGLVTAMDQDEEEQTVLTPMPAYARHAGQVGTKLYMSPEQIHGNSYSHKVDIFSLGLILFELLYPFSTQMERVRTLTDVRNLKFPPLFTQKYPCEYVMVQDMLSPSPMERPEAINIIENAVFEDLDFPGKTVLRQRSRSLSSSGTKHSRQSNNSHSPLPSN
B1: the binding result is “binds”.

Values taken from article PMC12711971.
